# Experimental data reported in article PMC12333954.
# Target: IL-33Δ34–miniTurbo fusion construct (human)
# Test: proximity labelling; miniTurbo fusions in HBE-1 cells, 500 µM biotin for 2 hours, streptavidin magnetic beads; labelled proteins identified by mass spectrometry proteomics (replicates 1-3)
binder,measurement,value
"CCT complex subunit CCT2 (protein, UniProt P78371 1-535) MASLSLAPVNIFKAGADEERAETARLTSFIGAIAIGDLVKSTLGPKGMDKILLSSGRDASLMVTNDGATILKNIGVDNPAAKVLVDMSRVQDDEVGDGTTSVTVLAAELLREAESLIAKKIHPQTIIAGWREATKAAREALLSSAVDHGSDEVKFRQDLMNIAGTTLSSKLLTHHKDHFTKLAVEAVLRLKGSGNLEAIHIIKKLGGSLADSYLDEGFLLDKKIGVNQPKRIENAKILIANTGMDTDKIKIFGSRVRVDSTAKVAEIEHAEKEKMKEKVERILKHGINCFINRQLIYNYPEQLFGAAGVMAIEHADFAGVERLALVTGGEIASTFDHPELVKLGSCKLIEEVMIGEDKLIHFSGVALGEACTIVLRGATQQILDEAERSLHDALCVLAQTVKDSRTVYGGGCSEMLMAHAVTQLANRTPGKEAVAMESYAKALRMLPTIIADNAGYDSADLVAQLRAAHSEGNTTAGLDMREGTIGDMAILGITESFQVKRQVLLSAAEAAEVILRVDNIIKAAPRKRVPDHHPC",binding,binds

# These are yes or no findings as the source states them, for the method shown. Binding seen in cells or lysates may run through a third protein. Here binding means that the protein was enriched with, or labelled near, the bait; the list need not be complete.
